Measured values from the supplement of paper PMC12823440, “Inhibitors supercharge kinase turnover through native proteolytic circuits” (Nature, 2025).
Where a name gives a salt, the structure may show the parent alone. The list shows a part of the results. The calls rarely recur for the same compound in another form.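 Kinases, fused to nanoluciferase, were expressed in K562 cells; luminescence was measured every 4 h from 2 to 18 h as percent of control (DMSO = 100%, positive control = 0%). A time point is decreased if signal falls significantly (2 sigma). Hits were called by the authors by a rule that is not shown; the count of time points alone does not decide it.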

Amino acid sequences for entries named in this document (tags omitted). A change or cut given only in a name is not applied to a line headed by its entry.
UniProt Q15208: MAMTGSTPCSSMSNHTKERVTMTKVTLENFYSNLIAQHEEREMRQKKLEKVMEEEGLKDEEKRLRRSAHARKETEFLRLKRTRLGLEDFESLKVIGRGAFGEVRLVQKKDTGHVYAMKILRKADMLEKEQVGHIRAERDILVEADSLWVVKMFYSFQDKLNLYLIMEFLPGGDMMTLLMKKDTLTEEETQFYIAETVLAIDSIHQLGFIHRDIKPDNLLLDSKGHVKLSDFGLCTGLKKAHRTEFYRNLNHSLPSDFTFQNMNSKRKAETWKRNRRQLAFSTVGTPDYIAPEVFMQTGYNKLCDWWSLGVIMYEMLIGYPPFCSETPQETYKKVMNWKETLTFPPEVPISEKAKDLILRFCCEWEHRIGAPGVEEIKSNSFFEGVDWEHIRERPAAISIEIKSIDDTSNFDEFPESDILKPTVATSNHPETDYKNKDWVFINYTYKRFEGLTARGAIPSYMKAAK
UniProt P42680: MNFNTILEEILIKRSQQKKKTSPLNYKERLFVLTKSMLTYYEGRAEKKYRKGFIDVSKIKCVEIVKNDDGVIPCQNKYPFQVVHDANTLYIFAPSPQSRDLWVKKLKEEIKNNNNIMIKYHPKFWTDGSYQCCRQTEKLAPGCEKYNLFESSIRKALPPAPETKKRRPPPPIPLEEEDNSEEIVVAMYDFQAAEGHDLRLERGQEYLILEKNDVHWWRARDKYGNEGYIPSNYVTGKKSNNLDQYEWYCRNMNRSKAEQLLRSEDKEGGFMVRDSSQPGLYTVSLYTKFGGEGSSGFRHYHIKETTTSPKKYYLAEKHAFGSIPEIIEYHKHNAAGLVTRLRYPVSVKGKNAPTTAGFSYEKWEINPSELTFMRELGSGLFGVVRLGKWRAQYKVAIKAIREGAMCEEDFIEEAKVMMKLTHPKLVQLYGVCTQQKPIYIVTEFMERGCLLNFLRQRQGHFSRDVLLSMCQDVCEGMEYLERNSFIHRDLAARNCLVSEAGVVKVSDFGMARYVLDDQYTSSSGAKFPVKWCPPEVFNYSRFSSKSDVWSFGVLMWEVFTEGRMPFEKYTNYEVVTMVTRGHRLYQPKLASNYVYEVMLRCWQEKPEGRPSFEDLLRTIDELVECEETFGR
UniProt P29597: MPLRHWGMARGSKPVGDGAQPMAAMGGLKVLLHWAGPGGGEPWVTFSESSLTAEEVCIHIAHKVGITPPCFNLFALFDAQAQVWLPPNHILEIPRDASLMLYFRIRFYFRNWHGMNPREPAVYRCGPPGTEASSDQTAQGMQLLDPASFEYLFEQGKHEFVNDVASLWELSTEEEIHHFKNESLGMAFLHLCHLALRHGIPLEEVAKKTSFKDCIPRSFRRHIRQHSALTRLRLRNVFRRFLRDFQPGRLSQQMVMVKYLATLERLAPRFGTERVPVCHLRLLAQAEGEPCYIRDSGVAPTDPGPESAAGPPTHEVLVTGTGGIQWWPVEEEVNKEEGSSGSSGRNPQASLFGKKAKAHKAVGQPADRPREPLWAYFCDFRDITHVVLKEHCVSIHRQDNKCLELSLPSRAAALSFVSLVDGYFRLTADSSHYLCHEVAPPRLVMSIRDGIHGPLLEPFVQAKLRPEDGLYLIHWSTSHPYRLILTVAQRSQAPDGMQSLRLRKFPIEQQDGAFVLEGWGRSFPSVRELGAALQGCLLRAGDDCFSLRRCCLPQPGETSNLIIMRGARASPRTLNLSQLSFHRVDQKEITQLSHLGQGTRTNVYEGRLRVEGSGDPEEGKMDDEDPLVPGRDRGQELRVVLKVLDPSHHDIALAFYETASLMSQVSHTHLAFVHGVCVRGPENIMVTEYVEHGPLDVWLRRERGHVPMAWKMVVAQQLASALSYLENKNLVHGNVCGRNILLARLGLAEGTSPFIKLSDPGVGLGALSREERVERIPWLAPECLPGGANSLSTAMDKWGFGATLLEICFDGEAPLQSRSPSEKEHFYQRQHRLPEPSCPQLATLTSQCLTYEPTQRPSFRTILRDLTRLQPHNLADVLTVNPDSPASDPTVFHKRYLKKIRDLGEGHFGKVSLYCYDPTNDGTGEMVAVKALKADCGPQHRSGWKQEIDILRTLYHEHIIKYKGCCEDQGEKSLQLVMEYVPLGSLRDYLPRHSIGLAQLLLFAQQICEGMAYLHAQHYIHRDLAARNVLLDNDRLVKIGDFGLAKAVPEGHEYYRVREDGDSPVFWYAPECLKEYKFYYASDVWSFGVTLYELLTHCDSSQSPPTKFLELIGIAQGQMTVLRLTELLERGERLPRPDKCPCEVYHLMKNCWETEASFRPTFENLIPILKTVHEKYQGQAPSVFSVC
UniProt Q6PHR2: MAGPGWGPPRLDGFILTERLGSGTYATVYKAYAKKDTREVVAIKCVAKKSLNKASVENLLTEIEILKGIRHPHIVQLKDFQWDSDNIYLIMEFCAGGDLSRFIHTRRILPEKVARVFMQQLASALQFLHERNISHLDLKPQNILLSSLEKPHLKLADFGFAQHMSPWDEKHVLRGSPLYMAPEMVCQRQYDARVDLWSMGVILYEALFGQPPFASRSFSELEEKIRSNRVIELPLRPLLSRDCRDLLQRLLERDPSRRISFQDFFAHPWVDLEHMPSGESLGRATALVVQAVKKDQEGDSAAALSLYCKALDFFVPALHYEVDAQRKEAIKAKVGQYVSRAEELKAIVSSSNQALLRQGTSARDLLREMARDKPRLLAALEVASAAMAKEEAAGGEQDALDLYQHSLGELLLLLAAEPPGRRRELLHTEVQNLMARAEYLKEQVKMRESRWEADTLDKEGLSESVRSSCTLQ
UniProt P07947, whole entry, looked up: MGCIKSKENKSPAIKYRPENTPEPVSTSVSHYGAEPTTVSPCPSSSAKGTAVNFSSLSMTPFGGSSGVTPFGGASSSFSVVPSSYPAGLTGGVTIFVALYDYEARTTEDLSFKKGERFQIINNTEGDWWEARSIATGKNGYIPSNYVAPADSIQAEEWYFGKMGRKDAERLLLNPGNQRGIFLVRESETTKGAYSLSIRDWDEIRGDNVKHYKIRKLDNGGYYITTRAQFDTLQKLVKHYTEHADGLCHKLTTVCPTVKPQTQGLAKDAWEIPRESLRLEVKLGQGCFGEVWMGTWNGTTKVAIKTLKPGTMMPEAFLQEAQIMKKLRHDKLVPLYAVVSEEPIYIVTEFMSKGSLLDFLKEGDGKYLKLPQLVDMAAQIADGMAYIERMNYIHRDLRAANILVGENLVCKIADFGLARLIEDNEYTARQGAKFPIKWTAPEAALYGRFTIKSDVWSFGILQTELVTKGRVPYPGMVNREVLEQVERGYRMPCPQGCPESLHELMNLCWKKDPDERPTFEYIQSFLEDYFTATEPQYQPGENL
UniProt P43403: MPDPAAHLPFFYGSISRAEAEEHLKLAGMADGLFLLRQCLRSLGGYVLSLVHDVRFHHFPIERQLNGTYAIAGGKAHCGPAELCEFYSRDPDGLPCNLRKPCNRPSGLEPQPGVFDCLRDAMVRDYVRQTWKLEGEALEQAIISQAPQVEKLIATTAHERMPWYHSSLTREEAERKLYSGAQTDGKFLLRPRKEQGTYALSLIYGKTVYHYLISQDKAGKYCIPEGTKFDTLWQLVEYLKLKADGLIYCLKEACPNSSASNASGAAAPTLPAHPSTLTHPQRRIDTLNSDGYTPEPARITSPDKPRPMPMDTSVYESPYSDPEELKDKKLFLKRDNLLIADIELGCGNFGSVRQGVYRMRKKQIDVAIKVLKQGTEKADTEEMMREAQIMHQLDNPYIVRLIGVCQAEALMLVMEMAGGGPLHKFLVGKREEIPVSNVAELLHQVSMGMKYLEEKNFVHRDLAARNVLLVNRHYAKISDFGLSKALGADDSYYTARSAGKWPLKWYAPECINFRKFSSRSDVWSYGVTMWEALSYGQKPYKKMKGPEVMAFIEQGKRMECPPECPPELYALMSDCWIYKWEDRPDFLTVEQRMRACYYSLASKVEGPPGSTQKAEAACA
UniProt P00519, whole entry: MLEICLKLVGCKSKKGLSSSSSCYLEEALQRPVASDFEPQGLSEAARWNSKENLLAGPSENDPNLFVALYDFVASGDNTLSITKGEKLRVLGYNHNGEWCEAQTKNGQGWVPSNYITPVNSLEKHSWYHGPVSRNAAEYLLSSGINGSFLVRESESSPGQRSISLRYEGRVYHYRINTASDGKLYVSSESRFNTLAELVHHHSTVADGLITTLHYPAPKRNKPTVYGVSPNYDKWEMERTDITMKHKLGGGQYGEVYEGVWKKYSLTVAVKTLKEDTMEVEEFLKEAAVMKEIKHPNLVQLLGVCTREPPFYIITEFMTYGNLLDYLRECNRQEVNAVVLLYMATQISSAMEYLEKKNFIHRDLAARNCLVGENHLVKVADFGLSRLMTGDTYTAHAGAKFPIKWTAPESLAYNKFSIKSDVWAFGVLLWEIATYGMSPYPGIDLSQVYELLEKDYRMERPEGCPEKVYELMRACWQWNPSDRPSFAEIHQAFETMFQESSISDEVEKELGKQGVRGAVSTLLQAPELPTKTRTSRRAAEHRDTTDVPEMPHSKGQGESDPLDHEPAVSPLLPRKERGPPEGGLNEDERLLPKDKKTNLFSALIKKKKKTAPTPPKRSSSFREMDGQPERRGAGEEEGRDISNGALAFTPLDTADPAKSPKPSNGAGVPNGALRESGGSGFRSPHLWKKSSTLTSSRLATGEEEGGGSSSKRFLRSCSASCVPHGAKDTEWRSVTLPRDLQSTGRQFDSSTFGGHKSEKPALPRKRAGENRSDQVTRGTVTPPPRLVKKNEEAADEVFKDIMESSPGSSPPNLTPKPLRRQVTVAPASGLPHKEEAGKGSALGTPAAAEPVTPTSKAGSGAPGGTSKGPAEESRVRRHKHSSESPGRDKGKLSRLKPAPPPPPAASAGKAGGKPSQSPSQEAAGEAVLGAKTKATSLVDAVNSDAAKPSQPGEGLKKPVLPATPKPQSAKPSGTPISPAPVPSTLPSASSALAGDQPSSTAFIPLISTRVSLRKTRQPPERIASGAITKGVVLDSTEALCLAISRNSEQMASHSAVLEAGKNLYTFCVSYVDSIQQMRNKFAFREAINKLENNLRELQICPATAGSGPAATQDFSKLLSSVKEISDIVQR
UniProt P31749: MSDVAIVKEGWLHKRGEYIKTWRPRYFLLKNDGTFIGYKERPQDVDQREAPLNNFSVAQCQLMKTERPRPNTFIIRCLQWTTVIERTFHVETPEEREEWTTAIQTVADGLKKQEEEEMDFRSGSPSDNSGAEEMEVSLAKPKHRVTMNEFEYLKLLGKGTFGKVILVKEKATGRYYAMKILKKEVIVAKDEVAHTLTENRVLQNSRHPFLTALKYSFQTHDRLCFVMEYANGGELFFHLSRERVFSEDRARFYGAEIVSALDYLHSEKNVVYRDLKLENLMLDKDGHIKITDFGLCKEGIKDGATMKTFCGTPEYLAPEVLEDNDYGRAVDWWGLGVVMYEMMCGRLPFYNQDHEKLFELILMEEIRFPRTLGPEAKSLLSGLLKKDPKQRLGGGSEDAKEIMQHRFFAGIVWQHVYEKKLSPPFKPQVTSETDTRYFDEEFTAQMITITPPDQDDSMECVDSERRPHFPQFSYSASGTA

Columns and labels:
Conditions in all cases: K562; 2-18 h
STK38 = STK38 (UniProt Q15208); test: kinase-Nluc reporter destabilization hit call (1 = scored as downregulated) (binary); higher = compound decreases kinase abundance
SYK = SYK (UniProt P43405); test: as above
TEC = TEC (UniProt P42680); test: as above
TYK2 = TYK2 (UniProt P29597); test: as above
ULK3 = ULK3 (UniProt Q6PHR2); test: as above
YES1 = YES1 (UniProt P07947); test: as above
ZAK = ZAK (UniProt Q9NYL2); test: as above
ZAP70 = ZAP70 (UniProt P43403); test: as above
ABL1 = ABL1 (UniProt P00519); test: number of time points (of 5) at which kinase-Nluc abundance scored as decreased, DMSO-normalised (count); higher = more persistent destabilization
AKT1 = AKT1 (UniProt P31749); test: as above

CC(C)n1c(CO)nc2c(F)cc(-c3nc(Nc4ccc(CN5CCNCC5)cn4)ncc3F)cc21 (10 µM)
kinase-Nluc reporter destabilization hit call (STK38): inactive: 0 | kinase-Nluc reporter destabilization hit call (SYK): inactive: 0 | kinase-Nluc reporter destabilization hit call (TEC): inactive: 0 | kinase-Nluc reporter destabilization hit call (TYK2): inactive: 0 | kinase-Nluc reporter destabilization hit call (ULK3): inactive: 0 | kinase-Nluc reporter destabilization hit call (YES1): inactive: 0 | kinase-Nluc reporter destabilization hit call (ZAK): inactive: 0 | kinase-Nluc reporter destabilization hit call (ZAP70): inactive: 0 | number of time points (ABL1): 4 | number of time points (AKT1): 0

O=C1OC(COc2ccccc2[N+](=O)[O-])CC1Cc1ccccc1 (stereo not given) (10 µM)
kinase-Nluc reporter destabilization hit call (STK38): inactive: 0 | kinase-Nluc reporter destabilization hit call (SYK): inactive: 0 | kinase-Nluc reporter destabilization hit call (TEC): inactive: 0 | kinase-Nluc reporter destabilization hit call (TYK2): inactive: 0 | kinase-Nluc reporter destabilization hit call (ULK3): inactive: 0 | kinase-Nluc reporter destabilization hit call (YES1): inactive: 0 | kinase-Nluc reporter destabilization hit call (ZAK): inactive: 0 | kinase-Nluc reporter destabilization hit call (ZAP70): inactive: 0 | number of time points (ABL1): 0 | number of time points (AKT1): 0

O=C(C#Cc1ccccc1)c1cccc([N+](=O)[O-])c1 (10 µM)
kinase-Nluc reporter destabilization hit call (STK38): inactive: 0 | kinase-Nluc reporter destabilization hit call (SYK): inactive: 0 | kinase-Nluc reporter destabilization hit call (TEC): inactive: 0 | kinase-Nluc reporter destabilization hit call (TYK2): inactive: 0 | kinase-Nluc reporter destabilization hit call (ULK3): inactive: 0 | kinase-Nluc reporter destabilization hit call (YES1): inactive: 0 | kinase-Nluc reporter destabilization hit call (ZAK): inactive: 0 | kinase-Nluc reporter destabilization hit call (ZAP70): inactive: 0 | number of time points (ABL1): 0 | number of time points (AKT1): 0

CC1=C(C#N)C(c2ccc3[nH]nc(C)c3c2)C(C#N)=C(C)N1 (10 µM)
kinase-Nluc reporter destabilization hit call (STK38): inactive: 0 | kinase-Nluc reporter destabilization hit call (SYK): inactive: 0 | kinase-Nluc reporter destabilization hit call (TEC): inactive: 0 | kinase-Nluc reporter destabilization hit call (TYK2): inactive: 0 | kinase-Nluc reporter destabilization hit call (ULK3): inactive: 0 | kinase-Nluc reporter destabilization hit call (YES1): inactive: 0 | kinase-Nluc reporter destabilization hit call (ZAK): inactive: 0 | kinase-Nluc reporter destabilization hit call (ZAP70): inactive: 0 | number of time points (ABL1): 0 | number of time points (AKT1): 0

COc1cc2nc(-c3cc(F)ccc3O)nc(N[C@@H]3CNC[C@H]3C(C)(C)O)c2cc1OC (2.5 µM)
kinase-Nluc reporter destabilization hit call (STK38): inactive: 0 | kinase-Nluc reporter destabilization hit call (SYK): inactive: 0 | kinase-Nluc reporter destabilization hit call (TEC): inactive: 0 | kinase-Nluc reporter destabilization hit call (TYK2): inactive: 0 | kinase-Nluc reporter destabilization hit call (ULK3): inactive: 0 | kinase-Nluc reporter destabilization hit call (YES1): inactive: 0 | kinase-Nluc reporter destabilization hit call (ZAK): inactive: 0 | kinase-Nluc reporter destabilization hit call (ZAP70): inactive: 0 | number of time points (ABL1): 0 | number of time points (AKT1): 0

COc1ccc2cc1Oc1ccc(cc1)C[C@H]1c3cc(c(OC)cc3CCN1C)Oc1c(O)c(OC)cc3c1[C@H](C2)N(C)CC3 [Fangchinoline] (2.5 µM)
kinase-Nluc reporter destabilization hit call (STK38): inactive: 0 | kinase-Nluc reporter destabilization hit call (SYK): inactive: 0 | kinase-Nluc reporter destabilization hit call (TEC): inactive: 0 | kinase-Nluc reporter destabilization hit call (TYK2): inactive: 0 | kinase-Nluc reporter destabilization hit call (ULK3): inactive: 0 | kinase-Nluc reporter destabilization hit call (YES1): inactive: 0 | kinase-Nluc reporter destabilization hit call (ZAK): inactive: 0 | kinase-Nluc reporter destabilization hit call (ZAP70): inactive: 0 | number of time points (ABL1): 0 | number of time points (AKT1): 0

C[C@@H]1CN(Cc2ccc(F)cc2)[C@@H](C)CN1C(=O)c1cc2c(C(=O)C(=O)N(C)C)cn(C)c2cc1Cl [Talmapimod] (10 µM)
kinase-Nluc reporter destabilization hit call (STK38): inactive: 0 | kinase-Nluc reporter destabilization hit call (SYK): inactive: 0 | kinase-Nluc reporter destabilization hit call (TEC): inactive: 0 | kinase-Nluc reporter destabilization hit call (TYK2): inactive: 0 | kinase-Nluc reporter destabilization hit call (ULK3): inactive: 0 | kinase-Nluc reporter destabilization hit call (YES1): inactive: 0 | kinase-Nluc reporter destabilization hit call (ZAK): inactive: 0 | kinase-Nluc reporter destabilization hit call (ZAP70): inactive: 0 | number of time points (ABL1): 0 | number of time points (AKT1): 0

COc1ccc(Br)c(C=O)c1O [6-Bromo-2-hydroxy-3-methoxybenzaldehyde] (10 µM)
kinase-Nluc reporter destabilization hit call (STK38): inactive: 0 | kinase-Nluc reporter destabilization hit call (SYK): inactive: 0 | kinase-Nluc reporter destabilization hit call (TEC): inactive: 0 | kinase-Nluc reporter destabilization hit call (TYK2): inactive: 0 | kinase-Nluc reporter destabilization hit call (ULK3): inactive: 0 | kinase-Nluc reporter destabilization hit call (YES1): inactive: 0 | kinase-Nluc reporter destabilization hit call (ZAK): inactive: 0 | kinase-Nluc reporter destabilization hit call (ZAP70): inactive: 0 | number of time points (ABL1): 0 | number of time points (AKT1): 0

CC1=CC(=O)C(C(C)C)=C/C1=N/OC(=O)c1ccccc1C [Poloxin] (2.5 µM)
kinase-Nluc reporter destabilization hit call (STK38): inactive: 0 | kinase-Nluc reporter destabilization hit call (SYK): inactive: 0 | kinase-Nluc reporter destabilization hit call (TEC): inactive: 0 | kinase-Nluc reporter destabilization hit call (TYK2): inactive: 0 | kinase-Nluc reporter destabilization hit call (ULK3): inactive: 0 | kinase-Nluc reporter destabilization hit call (YES1): inactive: 0 | kinase-Nluc reporter destabilization hit call (ZAK): inactive: 0 | kinase-Nluc reporter destabilization hit call (ZAP70): inactive: 0 | number of time points (ABL1): 0 | number of time points (AKT1): 0

Cc1nc(Nc2cnn(C3CCNCC3)c2)nc2c1N(C)C(=O)c1cc3ccccc3cc1N2C (2.5 µM)
kinase-Nluc reporter destabilization hit call (STK38): inactive: 0 | kinase-Nluc reporter destabilization hit call (SYK): inactive: 0 | kinase-Nluc reporter destabilization hit call (TEC): inactive: 0 | kinase-Nluc reporter destabilization hit call (TYK2): inactive: 0 | kinase-Nluc reporter destabilization hit call (ULK3): inactive: 0 | kinase-Nluc reporter destabilization hit call (YES1): inactive: 0 | kinase-Nluc reporter destabilization hit call (ZAK): inactive: 0 | kinase-Nluc reporter destabilization hit call (ZAP70): inactive: 0 | number of time points (ABL1): 0 | number of time points (AKT1): 0

CNCc1ccccc1Sc1cccc2ccccc12 [IFN alpha-IFNAR-IN-1 (hydrochloride)] (10 µM)
kinase-Nluc reporter destabilization hit call (STK38): inactive: 0 | kinase-Nluc reporter destabilization hit call (SYK): inactive: 0 | kinase-Nluc reporter destabilization hit call (TEC): inactive: 0 | kinase-Nluc reporter destabilization hit call (TYK2): inactive: 0 | kinase-Nluc reporter destabilization hit call (ULK3): inactive: 0 | kinase-Nluc reporter destabilization hit call (YES1): inactive: 0 | kinase-Nluc reporter destabilization hit call (ZAK): inactive: 0 | kinase-Nluc reporter destabilization hit call (ZAP70): inactive: 0 | number of time points (ABL1): 2 | number of time points (AKT1): 0

CC/C(=C(\c1ccccc1)c1ccc(OCCNC)cc1)c1ccccc1 [N-Desmethyltamoxifen (hydrochloride)] (2.5 µM)
kinase-Nluc reporter destabilization hit call (STK38): inactive: 0 | kinase-Nluc reporter destabilization hit call (SYK): inactive: 0 | kinase-Nluc reporter destabilization hit call (TEC): inactive: 0 | kinase-Nluc reporter destabilization hit call (TYK2): inactive: 0 | kinase-Nluc reporter destabilization hit call (ULK3): inactive: 0 | kinase-Nluc reporter destabilization hit call (YES1): inactive: 0 | kinase-Nluc reporter destabilization hit call (ZAK): inactive: 0 | kinase-Nluc reporter destabilization hit call (ZAP70): inactive: 0 | number of time points (ABL1): 0 | number of time points (AKT1): 0

Cn1c(N2CCO[C@@H](c3ccc(F)cc3)C2)nc(-c2ccncn2)cc1=O (10 µM)
kinase-Nluc reporter destabilization hit call (STK38): inactive: 0 | kinase-Nluc reporter destabilization hit call (SYK): inactive: 0 | kinase-Nluc reporter destabilization hit call (TEC): inactive: 0 | kinase-Nluc reporter destabilization hit call (TYK2): inactive: 0 | kinase-Nluc reporter destabilization hit call (ULK3): inactive: 0 | kinase-Nluc reporter destabilization hit call (YES1): inactive: 0 | kinase-Nluc reporter destabilization hit call (ZAK): inactive: 0 | kinase-Nluc reporter destabilization hit call (ZAP70): inactive: 0 | number of time points (ABL1): 0 | number of time points (AKT1): 0

Oc1ccc(-c2cnc3ccc(NCc4ccco4)nn23)cc1 [IRAK inhibitor 2] (2.5 µM)
kinase-Nluc reporter destabilization hit call (STK38): inactive: 0 | kinase-Nluc reporter destabilization hit call (SYK): inactive: 0 | kinase-Nluc reporter destabilization hit call (TEC): inactive: 0 | kinase-Nluc reporter destabilization hit call (TYK2): inactive: 0 | kinase-Nluc reporter destabilization hit call (ULK3): inactive: 0 | kinase-Nluc reporter destabilization hit call (YES1): inactive: 0 | kinase-Nluc reporter destabilization hit call (ZAK): inactive: 0 | kinase-Nluc reporter destabilization hit call (ZAP70): inactive: 0 | number of time points (ABL1): 0 | number of time points (AKT1): 0

COCCNc1cc(NC(=O)N2CCCc3cc(CN4CCOCC4=O)c(C=O)nc32)ncc1C#N (10 µM)
kinase-Nluc reporter destabilization hit call (STK38): inactive: 0 | kinase-Nluc reporter destabilization hit call (SYK): inactive: 0 | kinase-Nluc reporter destabilization hit call (TEC): inactive: 0 | kinase-Nluc reporter destabilization hit call (TYK2): inactive: 0 | kinase-Nluc reporter destabilization hit call (ULK3): inactive: 0 | kinase-Nluc reporter destabilization hit call (YES1): inactive: 0 | kinase-Nluc reporter destabilization hit call (ZAK): inactive: 0 | kinase-Nluc reporter destabilization hit call (ZAP70): inactive: 0 | number of time points (ABL1): 0 | number of time points (AKT1): 0

C[C@@H](NC(=O)c1ncnc(N)c1Cl)c1ncc(C(=O)Nc2cc(C(F)(F)F)c(Cl)cn2)s1 (2.5 µM)
kinase-Nluc reporter destabilization hit call (STK38): inactive: 0 | kinase-Nluc reporter destabilization hit call (SYK): inactive: 0 | kinase-Nluc reporter destabilization hit call (TEC): inactive: 0 | kinase-Nluc reporter destabilization hit call (TYK2): inactive: 0 | kinase-Nluc reporter destabilization hit call (ULK3): inactive: 0 | kinase-Nluc reporter destabilization hit call (YES1): inactive: 0 | kinase-Nluc reporter destabilization hit call (ZAK): inactive: 0 | kinase-Nluc reporter destabilization hit call (ZAP70): inactive: 0 | number of time points (ABL1): 2 | number of time points (AKT1): 0
